The values that follow are results of earlier work, collected in US20140314672A1, “NANOPARTICLE THERAPEUTIC AGENTS, THEIR FORMULATIONS, AND METHODS OF THEIR USE” (IGDRASOL, Inc., priority 2013, published 2014).

The conditions of this data set: water.

Turning to `CC(=O)O[C@H]1C(=O)[C@@]2(C)[C@H]([C@H](OC(=O)c3ccccc3)[C@]3(O)C[C@H](OC(=O)[C@H](O)[C@@H](NC(=O)c4ccccc4)c4ccccc4)C(C)=C1C3(C)C)[C@]1(OC(C)=O)CO[C@@H]1C[C@@H]2O` [Paclitaxel], the aqueous solubility result is recorded as “virtually insoluble in water”.
